The results in this text go back to publication PMC10197942.

Chains of the proteins cited; added tags and fusions are not shown.
UniProt P22626: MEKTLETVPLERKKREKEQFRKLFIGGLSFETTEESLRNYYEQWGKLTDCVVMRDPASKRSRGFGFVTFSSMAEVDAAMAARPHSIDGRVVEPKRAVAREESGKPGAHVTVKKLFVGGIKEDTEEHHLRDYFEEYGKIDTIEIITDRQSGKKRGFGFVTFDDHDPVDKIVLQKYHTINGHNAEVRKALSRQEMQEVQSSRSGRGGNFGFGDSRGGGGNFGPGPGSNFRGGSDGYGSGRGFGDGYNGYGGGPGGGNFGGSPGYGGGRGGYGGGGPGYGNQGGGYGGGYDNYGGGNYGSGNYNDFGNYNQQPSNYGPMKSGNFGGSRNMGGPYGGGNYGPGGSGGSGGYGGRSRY

The experiment addresses Heterogeneous nuclear ribonucleoprotein A2/B1 (human (endogenous in DU145 and PC3)) (UniProt P22626). Nature of the experiment: co-IP; lysates of DU145 and PC3 cells; incubated with anti-HNRNPA2B1 or anti-DGCR8 (IgG as negative control) at 4°C overnight, then magnetic beads at room temperature; eluted proteins analysed by western blotting with anti-HNRNPA2B1 and anti-DGCR8.

These are yes or no findings as the source states them, for the method shown. In cells and extracts the contact can be indirect. Some results given as binding are weak or reduced against the parent protein; the word gives no strength.

B1: DiGeorge syndrome critical region gene 8 (protein, UniProt Q8WYQ5 1-773)
chain: METDESPSPLPCGPAGEAVMESRARPFQALPREQSPPPPLQTSSGAEVMDVGSGGDGQSELPAEDPFNFYGASLLSKGSFSKGRLLIDPNCSGHSPRTARHAPAVRKFSPDLKLLKDVKISVSFTESCRSKDRKVLYTGAERDVRAECGLLLSPVSGDVHACPFGGSVGDGVGIGGESADKKDEENELDQEKRVEYAVLDELEDFTDNLELDEEGAGGFTAKAIVQRDRVDEEALNFPYEDDFDNDVDALLEEGLCAPKKRRTEEKYGGDSDHPSDGETSVQPMMTKIKTVLKSRGRPPTEPLPDGWIMTFHNSGVPVYLHRESRVVTWSRPYFLGTGSIRKHDPPLSSIPCLHYKKMKDNEEREQSSDLTPSGDVSPVKPLSRSAELEFPLDEPDSMGADPGPPDEKDPLGAEAAPGALGQVKAKVEVCKDESVDLEEFRSYLEKRFDFEQVTVKKFRTWAERRQFNREMKRKQAESERPILPANQKLITLSVQDAPTKKEFVINPNGKSEVCILHEYMQRVLKVRPVYNFFECENPSEPFGASVTIDGVTYGSGTASSKKLAKNKAARATLEILIPDFVKQTSEEKPKDSEELEYFNHISIEDSRVYELTSKAGLLSPYQILHECLKRNHGMGDTSIKFEVVPGKNQKSEYVMACGKHTVRGWCKNKRVGKQLASQKILQLLHPHVKNWGSLLRMYGRESSKMVKQETSDKSVIELQQYAKKNKPNLHILSKLQEEMKRLAEEREETRKKPKMSIVASAQPGGEPLCTVDV
As to B1, the binding entry is “binds”.
